PubChem BioAssay AID720505 | Drosophila RNAi Screening Center, 2013
In all, the deposit lists about 20,000 reagents; below is an unselected part of those with a known target gene and a result. Of all reagents, about 2,100 (10%) are marked active. 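Raw plate signals without normalisation; calls rest on control-based scores that were not deposited; replicate 2 separates called from uncalled poorly.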 A number with no mark means an inactive call. Names joined by + are all predicted targets of the reagent. No sequences are given here. Not given: the amount of reagent, the time to read-out.

Purpose: 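Knock-downs that reduce calcium influx once internal stores are emptied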 (primary screen)
Cell system: Drosophila S2R+ cells
Knock-down reagent: long dsRNA against Drosophila genes
Challenge: thapsigargin (2 µM) in calcium-free buffer to empty internal stores, then 2 mM calcium added back
Detection: 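Fluo-4 signal in 384-well plates read on a FLIPR after thapsigargin (2 µM, calcium-free) store depletion and 2 mM calcium add-back; unnormalised mean endpoint per well; screen run twice, selected wells retested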
Scale: calcium signal and retest calcium signal: higher = more calcium entry after store depletion
Rule for the call: 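About 1500 genes called as lowering calcium entry, by varying amounts, judged against per-plate control wells with STIM1 as positive and Rho1 as negative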
Calls: active = called as lowering calcium entry; inactive = not called

gene knocked down	dsRNA	calcium signal, replicate 1	calcium signal, replicate 2	retest calcium signal, replicate 1	retest calcium signal, replicate 2
Art8 (GeneID 34528)	DRSC02530	124	144		
me31B (GeneID 34364)	DRSC03569	99.1	126		
Obp19b (GeneID 33038)	DRSC20536	83.7	106		
Synj (GeneID 37517)	DRSC04526	99.3	119		
ssp5 (GeneID 41465)	DRSC14955	160	154		
CG13689 (GeneID 33241)	DRSC00358	89.6	114		
l(3)07882 (GeneID 46201)	DRSC15882	159	193		
Tsp42Ed (GeneID 35613)	DRSC05940	81.1	89.5		
Nep6 (GeneID 32234)	DRSC19877	167	110		
N (GeneID 31293)	DRSC18685	95.9	118		
CG4022 (GeneID 39082)	DRSC10395	65.7	95		
Pop2 (GeneID 39366)	DRSC10537	120	103		
Mcm2 (GeneID 40973)	DRSC16734	79.4	166		
Hrs (GeneID 33458)	DRSC00549	96.1	163		
CG34423 + Mthfs	DRSC04088	63.8 (active)	140		
cm + Inx7	DRSC18753	121	94.8		
CG9184 (GeneID 38152)	DRSC08636	122	152	113	75.9
CG9184 (GeneID 38152)	DRSC22184	110	247		
piwi (GeneID 34521)	DRSC03592	90.5	90.9		
Mcm7 (GeneID 39014)	DRSC11219	87	116		
CtsF (GeneID 40628)	DRSC12195	61.3 (active)	107		
CtsF (GeneID 40628)	DRSC12196	110	88.1		
CG8209 (GeneID 38888)	DRSC10970	88.1	57.3		
tous (GeneID 37582)	DRSC04464	139	129		
Akap200 (GeneID 34170)	DRSC01864	120	271		
CG3652 (GeneID 33643)	DRSC00624	119	144		
CG32700 (GeneID 31896)	DRSC17857	109	82.3		
CG32700 (GeneID 31896)	DRSC17858	110	98.4		
ort (GeneID 45910)	DRSC16240	230	186		
CG30016 (GeneID 246393)	DRSC05242	83.5	147		
CG7341 (GeneID 40004)	DRSC10818	144	105		
Hsp70Aa + Hsp70Ab	DRSC21246	191	82.4		
TTLL1A (GeneID 32704)	DRSC20121	105	99.2		
CG17721 (GeneID 41354)	DRSC15253	118	104		

Records listed above called active, once more:
gene knocked down	dsRNA	calcium signal, replicate 1	calcium signal, replicate 2	retest calcium signal, replicate 1	retest calcium signal, replicate 2
CG34423 + Mthfs	DRSC04088	63.8 (active)	140		
CtsF (GeneID 40628)	DRSC12195	61.3 (active)	107		
